We go through two sequences from article PMC8230603.

Data set [1] deals with Rad52-1-226 (Saccharomyces cerevisiae) (UniProt P06778). Briefly: EMSA. The settings on record: 5 mM MgCl2, 10 mM Tris-HCl pH 8, 5 mM MgCl2, 100 mM NaCl, 37 °C, 10 min, 0.27 µM Cy5-DNA (nt per Fig 6 legend), 8% native PAGE, recombinant protein, residues 1-226.
Data set [2] deals with Rad52-1-226 V95I (Saccharomyces cerevisiae) (UniProt P06778). In words: EMSA. As to conditions: 5 mM MgCl2, still binds at 0.05 uM, 10 mM Tris-HCl pH 8, 5 mM MgCl2, 100 mM NaCl, 37 °C, 10 min, 0.27 µM Cy5-DNA (nt per Fig 6 legend), 8% native PAGE, recombinant protein, residues 1-226. In general terms: A gel shift assay detects complexes by their altered migration in electrophoresis.

Where [3] appears, read: label: 5'-Cy5, single-stranded DNA.

For some of these results: A weaker result is weaker than the reference pair of the same experiment. For some of these results: For at least one entry, the source does not settle the construct or the ends of the probe. For some of these results: At least one verdict rests on a figure or table, not on a statement of the authors.

Consider “TGGGTGAACCTGCAGGTGGGCAAAGATGTCCTAGCAATGTAATCGTCAAGCTTTATGCCGTT [XV2 ssDNA]”, for which the binding result in data set [1] (setting [3]) is on record as “binds”; in data set [2] (setting [3]) it was “binds more weakly”.
As to “TGGGTGAACCTGCAGGTGGGCAAAGATGTCCTAGCAATGTAATCGTCAAGCTTTATGCCGTT (double strand) [XV2 dsDNA]”, the binding result is given as “binds” in data set [1] (label: 5'-Cy5 on strand 1) and “binds more weakly” in data set [2] (label: 5'-Cy5 on strand 1).
